# Measured values published in US20050049273A1, “Acridone derivatives as anti-herpesvirus agents” (priority 2003, published 2005).
# Some of these results come from one statement about several compounds together.
# Test system: HSV
# Assay: HSV cytopathogenicity under the viral yield assay condition
# Type: cell-based
row,Compound,protection against HSV cytopathogenicity
1,"COc1ccc2[nH]c3cc(OC(C)C)cc(O)c3c(=O)c2c1 [Compound 8, 1-Hydroxy-3-isopropoxy-7-methoxyacridone]",did not protect against HSV cytopathogenicity
2,"C=CCOc1cc(O)c2c(=O)c3cc(OC)ccc3[nH]c2c1 [Compound 10, 3-Allyloxy-1-hydroxy-7-methoxyacridone]",did not protect against HSV cytopathogenicity
3,"CCOc1cc(O)c2c(=O)c3cc(OC)ccc3[nH]c2c1 [Compound 6, 3-Ethoxy-1-hydroxy-7-methoxyacridone]",did not protect against HSV cytopathogenicity
4,"CCCOc1cc(O)c2c(=O)c3cc(OC)ccc3[nH]c2c1 [Compound 7, 1-Hydroxy-7-methoxy-3-propoxyacridone]",did not protect against HSV cytopathogenicity
